Laboratory results taken from PubChem BioAssay (EPA / NIEHS).
Values joined by “and” are separate entries in the source; they are usually repeats but may differ in a detail not shown here. Equal entries are not always repeated. The inconclusive results got no clear call from the source; some entries with a clear call stand among them for comparison. A potency beside an inconclusive call is a rough fit, not a confirmed value. Where a structure was tested more than once in an assay, its records may differ in their call. Active and inactive are the calls of the source. How the source made its calls: active means hit-call score of the fitted dose curve at least 0.9, where 1 is the maximum; inconclusive means response in the unintended direction; inactive means score below 0.9.

By UniProt entry, the sequences of proteins in these tests, tags left out. Where a name states a change or a piece, a line headed by the entry shows the natural chain unless it says otherwise.
UniProt O97775: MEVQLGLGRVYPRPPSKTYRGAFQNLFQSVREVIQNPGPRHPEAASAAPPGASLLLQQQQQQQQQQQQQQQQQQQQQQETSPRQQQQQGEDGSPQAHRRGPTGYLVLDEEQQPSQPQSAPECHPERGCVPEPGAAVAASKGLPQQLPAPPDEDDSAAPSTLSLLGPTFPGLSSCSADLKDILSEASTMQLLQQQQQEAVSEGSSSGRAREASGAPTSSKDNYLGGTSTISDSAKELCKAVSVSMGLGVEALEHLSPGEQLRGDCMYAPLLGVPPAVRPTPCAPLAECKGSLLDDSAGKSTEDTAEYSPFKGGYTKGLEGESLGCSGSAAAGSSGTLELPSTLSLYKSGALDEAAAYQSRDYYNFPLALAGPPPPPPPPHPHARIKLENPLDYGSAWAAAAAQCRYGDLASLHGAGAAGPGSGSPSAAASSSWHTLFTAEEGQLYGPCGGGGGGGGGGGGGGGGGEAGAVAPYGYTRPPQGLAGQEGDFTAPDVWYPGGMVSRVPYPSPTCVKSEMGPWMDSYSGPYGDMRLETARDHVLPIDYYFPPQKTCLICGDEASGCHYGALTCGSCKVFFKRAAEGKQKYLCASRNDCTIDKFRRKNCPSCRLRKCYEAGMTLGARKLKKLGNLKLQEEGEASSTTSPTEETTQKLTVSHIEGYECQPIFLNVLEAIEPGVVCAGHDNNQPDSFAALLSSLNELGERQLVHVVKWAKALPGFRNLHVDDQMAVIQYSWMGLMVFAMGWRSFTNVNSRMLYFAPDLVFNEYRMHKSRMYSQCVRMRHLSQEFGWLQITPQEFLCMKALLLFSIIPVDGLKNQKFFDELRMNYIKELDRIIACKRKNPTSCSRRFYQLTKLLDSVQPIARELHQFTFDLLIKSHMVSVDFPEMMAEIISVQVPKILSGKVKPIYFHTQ
UniProt P03372, whole entry, looked up: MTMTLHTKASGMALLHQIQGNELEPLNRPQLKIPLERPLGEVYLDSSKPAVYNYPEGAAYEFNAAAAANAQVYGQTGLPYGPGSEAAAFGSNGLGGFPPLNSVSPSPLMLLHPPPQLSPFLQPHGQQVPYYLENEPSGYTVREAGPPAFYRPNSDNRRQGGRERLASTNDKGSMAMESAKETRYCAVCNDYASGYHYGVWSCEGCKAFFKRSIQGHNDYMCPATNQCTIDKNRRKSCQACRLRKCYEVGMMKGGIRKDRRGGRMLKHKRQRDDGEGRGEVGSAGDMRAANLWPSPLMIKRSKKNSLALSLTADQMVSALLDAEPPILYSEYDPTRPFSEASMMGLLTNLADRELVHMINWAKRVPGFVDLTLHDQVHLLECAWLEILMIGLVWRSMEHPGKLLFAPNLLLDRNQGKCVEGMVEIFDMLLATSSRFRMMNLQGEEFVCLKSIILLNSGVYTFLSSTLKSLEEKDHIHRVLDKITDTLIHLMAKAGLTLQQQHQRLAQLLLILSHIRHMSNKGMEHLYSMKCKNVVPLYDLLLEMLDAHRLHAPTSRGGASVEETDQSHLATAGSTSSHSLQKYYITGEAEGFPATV
UniProt Q92731, whole entry, looked up: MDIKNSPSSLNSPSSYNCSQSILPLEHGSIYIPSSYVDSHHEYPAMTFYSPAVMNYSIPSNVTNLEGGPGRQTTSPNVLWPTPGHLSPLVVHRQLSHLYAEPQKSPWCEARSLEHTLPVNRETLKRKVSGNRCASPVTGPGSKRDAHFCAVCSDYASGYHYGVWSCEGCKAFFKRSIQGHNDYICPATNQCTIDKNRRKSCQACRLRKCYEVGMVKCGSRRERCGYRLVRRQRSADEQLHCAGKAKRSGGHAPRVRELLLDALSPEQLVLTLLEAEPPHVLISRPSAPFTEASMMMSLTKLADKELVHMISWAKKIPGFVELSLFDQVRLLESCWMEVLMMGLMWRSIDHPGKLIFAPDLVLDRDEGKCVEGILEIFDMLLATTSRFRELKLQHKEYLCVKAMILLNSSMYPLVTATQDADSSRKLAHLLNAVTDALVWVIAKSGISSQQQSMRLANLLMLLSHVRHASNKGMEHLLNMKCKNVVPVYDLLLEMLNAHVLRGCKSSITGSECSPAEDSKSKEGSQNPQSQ
UniProt P10275: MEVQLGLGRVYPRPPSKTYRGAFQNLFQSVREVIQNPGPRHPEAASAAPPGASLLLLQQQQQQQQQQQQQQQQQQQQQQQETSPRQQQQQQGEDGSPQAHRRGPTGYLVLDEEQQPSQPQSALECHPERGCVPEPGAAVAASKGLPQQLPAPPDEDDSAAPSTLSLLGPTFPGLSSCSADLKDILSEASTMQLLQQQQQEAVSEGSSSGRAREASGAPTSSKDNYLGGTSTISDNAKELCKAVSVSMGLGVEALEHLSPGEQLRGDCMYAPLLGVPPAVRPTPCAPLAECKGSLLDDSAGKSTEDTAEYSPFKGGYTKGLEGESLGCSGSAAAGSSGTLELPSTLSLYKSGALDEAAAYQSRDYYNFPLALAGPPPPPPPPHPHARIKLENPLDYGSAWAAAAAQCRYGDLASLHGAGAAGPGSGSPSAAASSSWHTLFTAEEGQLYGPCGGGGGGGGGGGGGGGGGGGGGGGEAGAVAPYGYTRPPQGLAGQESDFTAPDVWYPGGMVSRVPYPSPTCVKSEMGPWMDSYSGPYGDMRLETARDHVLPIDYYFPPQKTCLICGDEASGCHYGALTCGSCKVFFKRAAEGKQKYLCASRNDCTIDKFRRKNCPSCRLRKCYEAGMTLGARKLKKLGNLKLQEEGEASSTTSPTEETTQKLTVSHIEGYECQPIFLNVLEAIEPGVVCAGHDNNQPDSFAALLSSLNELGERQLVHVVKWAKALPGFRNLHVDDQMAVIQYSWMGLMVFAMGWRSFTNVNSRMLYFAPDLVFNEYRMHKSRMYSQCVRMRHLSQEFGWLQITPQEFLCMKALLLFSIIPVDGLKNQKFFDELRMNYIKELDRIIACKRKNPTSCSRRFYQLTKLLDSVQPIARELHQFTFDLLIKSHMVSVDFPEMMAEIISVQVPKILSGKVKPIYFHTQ

Target: chimpanzee Androgen Receptor (AR), AR (gene 747460) (UniProt O97775)
Experiment: NVS_NR_cAR: NovaScreen (NVS) Nuclear Receptor Binding Assay for chimpanzee Androgen Receptor (AR) (AID 2283346);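 further: radioligand displacement from AR measured by scintillation counting in a cell-free assay; a loss of bound radioligand signal versus DMSO counts as binding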
Outline: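 Radioligand binding to chimpanzee AR expressed in Sf9/Sf21 cells, cell-free, measured 72 h after dosing by lysate-based scintillation counting. Loss of signal vs DMSO; initial duplicate screen at 25 uM, actives retested in concentration series.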

Row | SMILES | AC50
1 | Nc1ccc(Cl)c(Cl)c1 | active: 25 µM
2 | O=c1c2ccccc2c(=O)c2c1cc(Cl)c1[nH]c3c([nH]c12)c(Cl)cc1c(=O)c2ccccc2c(=O)c13 | inconclusive: 0.0651 µM
3 | O=C1C=CC(=O)c2ccccc21 | inconclusive: 5 µM

Target: Estrogen receptor (Homo sapiens) (UniProt P03372)
Experiment: NVS_NR_hER: NovaScreen (NVS) Nuclear Receptor Binding Assay for human Estrogen Receptor (ER) (AID 2283348)
Outline: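 Radioligand competitive displacement binding to estrogen receptor from MCF7 extract, cell-free; 18 h after dosing, scintillation read-out. Primary screen in duplicate at 25 uM; actives followed up in concentration series; loss of signal vs DMSO.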

Row | SMILES | outcome | AC50
4 | CCCN(CCC)N=O | inactive | –
5 | CCCCN(CC)C(=O)SCCC | – | active: 3.02 µM
6 | COP(=S)(OC)Oc1ccc(SC)c(C)c1 | inactive | –
7 | CCOP(=S)(OCC)Oc1cnc2ccccc2n1 | – | inconclusive: 25 µM
8 | CCOc1ccc(N)cc1 | – | inconclusive: 25 µM
9 | CCC(C)c1cc([N+](=O)[O-])cc([N+](=O)[O-])c1O (stereo not drawn) | – | inconclusive: 6.21 µM
10 | CCCCCCCCCCCCCCC(Br)C(=O)O (stereo not drawn) | inactive | –
11 | CCC(=O)O[C@H]1CC[C@H]2[C@@H]3CCC4=CC(=O)CC[C@]4(C)[C@H]3CC[C@]12C | inactive | active: 14 µM and inconclusive: 5.88 µM
12 | COP(=S)(OC)Oc1ccc(S(=O)(=O)N(C)C)cc1 | – | inconclusive: 25 µM
13 | Cc1ccc(-c2c(Cl)nc(C#N)n2S(=O)(=O)N(C)C)cc1 | inactive | –
14 | Nc1ccc(Cl)cc1 | – | inconclusive: 25.4 µM and inconclusive: 44.6 µM
15 | CCCCCCCCCc1ccc(O)cc1 | inactive | inconclusive: 25 µM
16 | C[C@]12CCC(=O)C=C1CC[C@@H]1[C@@H]2CC[C@@]2(C)[C@H]1CC[C@]2(C)O | – | active: 6.34 µM and active: 6.28 µM and active: 6.19 µM
17 | CCC[CH2][Sn]([Cl])([CH2]CCC)[CH2]CCC | inactive | –
18 | C[C@]12CCC(=O)C=C1CC[C@@H]1[C@@H]2CC[C@]2(C)C(=O)CC[C@@H]12 | – | inconclusive: 69.6 nM and active: 38.5 µM
19 | O=P1(N(CCCl)CCCl)NCCCO1 (stereo not drawn) | – | active: 15.7 µM
20 | O=[N+]([O-])c1ccc(Nc2ccccc2)cc1 | inactive | –
21 | O=[N+]([O-])c1ccccc1 | – | inconclusive: 0.279 µM
22 | Cc1cc(-c2ccc(N)c(C)c2)ccc1N | – | active: 0.0153 µM
23 | C=CC#N | – | inconclusive: 25 µM
24 | CCCCCOC(=O)c1ccccc1C(=O)OCCCCC | – | inconclusive: 25 µM
25 | COc1nn(CSP(=S)(OC)OC)c(=O)s1 | – | inconclusive: 25 µM
26 | COC(=O)c1sccc1S(=O)(=O)NC(=O)Nc1nc(C)nc(OC)n1 | inactive | inconclusive: 25 µM
27 | CCOC(=O)CCN(SN(C)C(=O)Oc1cccc2c1OC(C)(C)C2)C(C)C | – | inconclusive: 0.302 µM
28 | CSc1nc(NC(C)C)nc(NC(C)C)n1 | – | inconclusive: 25 µM

2 entries from above, with each value named:
CCCN(CCC)N=O
  outcome: inactive
CCCCN(CC)C(=O)SCCC
  AC50: active: 3.02 µM

Target: Estrogen receptor (Homo sapiens) (UniProt P03372)
Experiment: OT_ER_ERaERa_0480: Odyssey Thera (OT) 8-hour HEK293T Protein-Complementation Assay for Estrogen Receptor-alpha/-alpha Homodimer (AID 2283351);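 further: rise in fluorescence from reassembled reporter fragments on ERα LBD homodimer in nucleus or whole cell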
Outline: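 Binding reporter in which dimerisation of ERα LBD (aa 310-547) fusions reconstitutes a fluorescent reporter in HEK293T cells. Compounds incubated 8 h; mean fluorescence intensity increase versus DMSO scored.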

Row | SMILES | AC50 | outcome
29 | CCOP(=S)(OCC)SCSP(=S)(OCC)OCC | active: 6.96 µM | –
30 | CCOP(=S)(Oc1ccc([N+](=O)[O-])cc1)c1ccccc1 (stereo not drawn) | active: 14.8 µM | –
31 | C[C@]12CCC(=O)C=C1CC[C@@H]1[C@@H]2CC[C@@]2(C)[C@H]1CC[C@]2(C)O | inconclusive: 0.5 µM | –
32 | COP(=O)(OC)SCn1c(=O)oc2cc(Cl)cnc21 | inconclusive: 50 µM | –
33 | COc1nn(CSP(=S)(OC)OC)c(=O)s1 | – | inactive

Target: Estrogen receptor (Homo sapiens) + Estrogen receptor beta (Homo sapiens) (UniProt P03372+Q92731)
Experiment: OT_ER_ERaERb_0480: Odyssey Thera (OT) 8-hour HEK293T Protein-Complementation Assay for Estrogen Receptor-alpha/-beta Heterodimer (AID 2283352)
Outline: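 Fluorescence intensity readout from a protein-fragment complementation reporter in HEK293T; ER-alpha/ER-beta LBD heterodimer. Dosing 8 h. Gain-of-signal fit relative to DMSO negative control; laser scanning cytometry of whole-well cell population.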

Row | SMILES | AC50 | outcome
34 | CCOP(=S)(Oc1ccc([N+](=O)[O-])cc1)c1ccccc1 (stereo not drawn) | active: 19.2 µM | –
35 | CCCCCCCCCc1ccc(O)cc1 | active: 17.6 µM and active: 14.6 µM and active: 19.5 µM | –
36 | C[C@]12CCC(=O)C=C1CC[C@@H]1[C@@H]2CC[C@]2(C)C(=O)CC[C@@H]12 | inconclusive: 50 µM | –
37 | O=P1(N(CCCl)CCCl)NCCCO1 (stereo not drawn) | – | inactive
38 | O=C(Nc1ccc2[nH]ccc2c1)c1cc2cc(F)ccc2n1Cc1cccc(F)c1 | inconclusive: 3.37 µM | –
39 | CC(O)(CS(=O)(=O)c1ccc(F)cc1)C(=O)Nc1ccc(C#N)c(C(F)(F)F)c1 (stereo not drawn) | – | inactive
40 | O=[N+]([O-])c1ccccc1 | – | inactive
41 | CCCCCOC(=O)c1ccccc1C(=O)OCCCCC | active: 22.1 µM | –
42 | O=S1(=O)OC(c2cc(Br)c(O)c(Br)c2)(c2cc(Br)c(O)c(Br)c2)c2ccccc21 | active: 15.2 µM | –

Target: Androgen Receptor/SRC-1 Co-activator, AR (gene 367) (UniProt P10275)
Experiment: OT_AR_ARSRC1_0480: Odyssey Thera (OT) 8-hour HEK293T Protein-Complementation Assay for Androgen Receptor/SRC-1 Co-activator (AID 2283354);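 further: hits raise the complementation signal above DMSO so AC50 marks enhancers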
Outline: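 HEK293T cells stably expressing AR and SRC-1 fused to Venus YFP fragments, imaged 8 h after dosing. Complementation fluorescence scored as nuclear/cytoplasmic ratio at 488 nm in at least 400 cells per image; gain fitted versus DMSO.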

Row | SMILES | AC50 | outcome
43 | CCCCN(CC)C(=O)SCCC | inconclusive: 50 µM | –
44 | CCC1(c2ccc(N)cc2)CCC(=O)NC1=O (stereo not drawn) | – | inactive
45 | C=CC(=O)NCNC(=O)C=C | – | inactive
